# Data from patent US20070129403A1, “METHOD OF TREATING SCHIZOPHRENIA AND/OR GLUCOREGULATORY ABNORMALITIES” (AVENTIS PHARMACEUTICALS INC., priority 2004, published 2007).
# By UniProt entry, the sequences of proteins in these tests, tags left out.
# UniProt P22001, whole entry: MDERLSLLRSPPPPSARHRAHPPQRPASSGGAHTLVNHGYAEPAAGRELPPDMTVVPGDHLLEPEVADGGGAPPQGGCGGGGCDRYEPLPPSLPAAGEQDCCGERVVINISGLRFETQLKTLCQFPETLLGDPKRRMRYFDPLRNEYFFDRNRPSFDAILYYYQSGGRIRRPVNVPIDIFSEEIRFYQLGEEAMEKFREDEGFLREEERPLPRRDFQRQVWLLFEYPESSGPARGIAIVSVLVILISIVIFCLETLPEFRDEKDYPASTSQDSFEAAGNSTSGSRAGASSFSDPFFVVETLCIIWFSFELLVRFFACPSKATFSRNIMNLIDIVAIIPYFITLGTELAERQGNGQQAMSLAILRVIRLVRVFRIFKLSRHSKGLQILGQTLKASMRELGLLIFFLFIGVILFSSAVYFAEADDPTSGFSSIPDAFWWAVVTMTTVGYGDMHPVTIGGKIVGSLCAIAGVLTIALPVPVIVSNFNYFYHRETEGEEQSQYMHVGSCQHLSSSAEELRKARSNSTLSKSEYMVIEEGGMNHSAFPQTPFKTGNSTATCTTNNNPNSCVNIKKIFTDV
# UniProt P31645, whole entry: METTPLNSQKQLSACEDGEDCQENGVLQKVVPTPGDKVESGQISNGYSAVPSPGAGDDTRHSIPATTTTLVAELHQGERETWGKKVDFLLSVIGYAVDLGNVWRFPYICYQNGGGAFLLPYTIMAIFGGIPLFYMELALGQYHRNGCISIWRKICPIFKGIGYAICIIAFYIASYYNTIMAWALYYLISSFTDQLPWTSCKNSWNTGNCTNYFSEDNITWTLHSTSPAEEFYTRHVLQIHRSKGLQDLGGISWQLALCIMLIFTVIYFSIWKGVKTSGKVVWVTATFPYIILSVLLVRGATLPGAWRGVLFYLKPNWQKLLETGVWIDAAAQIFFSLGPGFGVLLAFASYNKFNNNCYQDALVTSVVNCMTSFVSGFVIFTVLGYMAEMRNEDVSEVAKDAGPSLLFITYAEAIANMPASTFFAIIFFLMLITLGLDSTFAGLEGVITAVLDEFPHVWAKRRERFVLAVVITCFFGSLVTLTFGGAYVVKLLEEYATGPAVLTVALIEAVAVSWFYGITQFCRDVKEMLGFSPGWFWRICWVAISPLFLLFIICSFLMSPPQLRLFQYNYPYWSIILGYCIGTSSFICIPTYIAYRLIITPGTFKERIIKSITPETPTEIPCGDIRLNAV
# At least one compound was matched to its structure with a doubt left.
# Key:
# [1] = biological target: T1, voltage-activated K+ currents present on human T-cells (predominantly Kv1.3 type) (Homo sapiens, UniProt P22001); assay: Whole-cell patch clamp, voltage-gated potassium channels in CD3/CD28-activated T cells; assay type: cell-based; details: T-cells activated eight times with CD3/CD28; tested at 1 and 10 μM, data only in figure
# T1 construct: endogenous in cells
# muscarinic receptors = details: Smith et al, 1993; 1996; cited from earlier work
# α2-adrenergic receptors = details: Smith et al, 1993; 1996; cited from earlier work
# [2] = biological target: serotonergic uptake carrier (Homo sapiens, UniProt P31645); details: Smith et al, 1993; 1996; cited from earlier work
# [3] = biological target: T2, cloned human Kv2.1 potassium channels (Homo sapiens, UniProt Q14721); assay: Whole-cell patch clamp, cloned human Kv2.1 channels expressed in U-373MG cells; assay type: cell-based; details: qualitative statement
# T2 construct: expressed in transfected cells; host or cells: U-373MG (G418 selection)
# T2 sequence (Q14721 1-858): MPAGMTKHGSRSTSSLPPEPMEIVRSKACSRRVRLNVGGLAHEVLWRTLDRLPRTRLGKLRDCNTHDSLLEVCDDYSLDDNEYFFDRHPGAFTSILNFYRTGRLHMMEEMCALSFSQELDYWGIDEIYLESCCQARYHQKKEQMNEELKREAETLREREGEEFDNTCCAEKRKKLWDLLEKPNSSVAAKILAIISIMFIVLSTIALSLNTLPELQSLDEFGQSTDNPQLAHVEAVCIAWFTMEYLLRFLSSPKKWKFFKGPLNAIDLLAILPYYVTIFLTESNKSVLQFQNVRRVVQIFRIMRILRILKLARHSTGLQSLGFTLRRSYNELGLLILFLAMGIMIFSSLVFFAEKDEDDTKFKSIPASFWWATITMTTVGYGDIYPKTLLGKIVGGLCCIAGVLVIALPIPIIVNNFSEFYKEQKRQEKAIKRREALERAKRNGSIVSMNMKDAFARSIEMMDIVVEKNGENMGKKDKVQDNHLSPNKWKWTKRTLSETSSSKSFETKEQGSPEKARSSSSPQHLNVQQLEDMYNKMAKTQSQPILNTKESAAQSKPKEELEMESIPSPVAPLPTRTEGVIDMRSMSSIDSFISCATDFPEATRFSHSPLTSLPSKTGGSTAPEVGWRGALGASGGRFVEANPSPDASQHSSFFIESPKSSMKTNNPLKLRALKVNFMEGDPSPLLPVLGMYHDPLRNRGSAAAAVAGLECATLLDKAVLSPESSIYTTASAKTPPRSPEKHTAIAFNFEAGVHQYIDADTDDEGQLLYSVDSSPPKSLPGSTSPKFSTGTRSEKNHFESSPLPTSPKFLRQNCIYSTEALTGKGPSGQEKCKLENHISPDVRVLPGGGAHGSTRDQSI
# Experimental: The purpose of this in vitro study was to evaluate the effects of HP184 on cloned human Kv2.1 potassium channels expressed in U-373MG cells using the whole-cell patch-clamping technique.
# U-373MG cells expressing the human Kv2.1 channels were grown in DMEM media supplemented with 10% fetal bovine serum, 1×penicillin/streptomycin and […], G418 (Invitrogen, Carlsbad, Calif.) in an atmosphere of 95% air/5% CO2. Cells used for patch-clamping were seeded on glass or plastic coverslips 12-36 hours before use. Kv2.1 Currents were recorded at room temperature using the whole-cell configuration of the patch clamp technique with an Axopatch 200B amplifier (Axon Instruments, Foster City, Calif.). […] For dose-dependently, currents were initiated by a 300-ms positive voltage pulse (20 mV) followed by a 50-ms negative pulse (−100 mV) and were recorded for off-line analyses. […] Currents were continuously recorded until they reached steady-state condition. […] For each concentration from each cell, the steady-state current at the end of the 20-mV activation pulse was measured in pico Ampere (pA). The amplitude in pA for each concentration was compared with that for the control solution from the same cell and expressed as percent control (% control).
# serotonin1A receptors = details: Smith et al, 1993; 1996; cited from earlier work
# [4] = system: release of norepinephrine, acetylcholine and serotonin; details: dependence on added calcium; Smith et al, 1993; 1996; cited from earlier work
smiles,measurement,setting,value
"CCCN(c1ccncc1F)n1cc(C)c2ccccc21 [HP184, N-(3-fluoro-4-pyridinyl)-N-propyl-3-methyl-1H-indole-1-amine]",Block of voltage-activated K+ currents (Kv1.3) on human T-cells (in words),[1],blocks
same,Interaction with muscarinic receptors (in words),muscarinic receptors,does not interact
same,Interaction with α2-adrenergic receptors (in words),α2-adrenergic receptors,does not interact
same,Interaction with serotonergic uptake carrier (in words),[2],does not interact
same,Blockade of / affinity for the human Kv2.1 channel (in words),[3],block
same,Interaction with serotonin1A receptors (in words),serotonin1A receptors,does not interact
same,"Release of norepinephrine, acetylcholine and serotonin from rat brain slices (in words)",[4],"enhances the release of norepinephrine, acetylcholine and serotonin in the absence of added calcium"
